The source of these data is patent US20110311601A1, “ANTIMICROBIAL MEDICAL DEVICES” (priority 2010, published 2011).

By UniProt entry, the sequences of proteins in these tests, tags left out. Where a name states a change or a piece, a line headed by the entry shows the natural chain unless it says otherwise.
UniProt P02453: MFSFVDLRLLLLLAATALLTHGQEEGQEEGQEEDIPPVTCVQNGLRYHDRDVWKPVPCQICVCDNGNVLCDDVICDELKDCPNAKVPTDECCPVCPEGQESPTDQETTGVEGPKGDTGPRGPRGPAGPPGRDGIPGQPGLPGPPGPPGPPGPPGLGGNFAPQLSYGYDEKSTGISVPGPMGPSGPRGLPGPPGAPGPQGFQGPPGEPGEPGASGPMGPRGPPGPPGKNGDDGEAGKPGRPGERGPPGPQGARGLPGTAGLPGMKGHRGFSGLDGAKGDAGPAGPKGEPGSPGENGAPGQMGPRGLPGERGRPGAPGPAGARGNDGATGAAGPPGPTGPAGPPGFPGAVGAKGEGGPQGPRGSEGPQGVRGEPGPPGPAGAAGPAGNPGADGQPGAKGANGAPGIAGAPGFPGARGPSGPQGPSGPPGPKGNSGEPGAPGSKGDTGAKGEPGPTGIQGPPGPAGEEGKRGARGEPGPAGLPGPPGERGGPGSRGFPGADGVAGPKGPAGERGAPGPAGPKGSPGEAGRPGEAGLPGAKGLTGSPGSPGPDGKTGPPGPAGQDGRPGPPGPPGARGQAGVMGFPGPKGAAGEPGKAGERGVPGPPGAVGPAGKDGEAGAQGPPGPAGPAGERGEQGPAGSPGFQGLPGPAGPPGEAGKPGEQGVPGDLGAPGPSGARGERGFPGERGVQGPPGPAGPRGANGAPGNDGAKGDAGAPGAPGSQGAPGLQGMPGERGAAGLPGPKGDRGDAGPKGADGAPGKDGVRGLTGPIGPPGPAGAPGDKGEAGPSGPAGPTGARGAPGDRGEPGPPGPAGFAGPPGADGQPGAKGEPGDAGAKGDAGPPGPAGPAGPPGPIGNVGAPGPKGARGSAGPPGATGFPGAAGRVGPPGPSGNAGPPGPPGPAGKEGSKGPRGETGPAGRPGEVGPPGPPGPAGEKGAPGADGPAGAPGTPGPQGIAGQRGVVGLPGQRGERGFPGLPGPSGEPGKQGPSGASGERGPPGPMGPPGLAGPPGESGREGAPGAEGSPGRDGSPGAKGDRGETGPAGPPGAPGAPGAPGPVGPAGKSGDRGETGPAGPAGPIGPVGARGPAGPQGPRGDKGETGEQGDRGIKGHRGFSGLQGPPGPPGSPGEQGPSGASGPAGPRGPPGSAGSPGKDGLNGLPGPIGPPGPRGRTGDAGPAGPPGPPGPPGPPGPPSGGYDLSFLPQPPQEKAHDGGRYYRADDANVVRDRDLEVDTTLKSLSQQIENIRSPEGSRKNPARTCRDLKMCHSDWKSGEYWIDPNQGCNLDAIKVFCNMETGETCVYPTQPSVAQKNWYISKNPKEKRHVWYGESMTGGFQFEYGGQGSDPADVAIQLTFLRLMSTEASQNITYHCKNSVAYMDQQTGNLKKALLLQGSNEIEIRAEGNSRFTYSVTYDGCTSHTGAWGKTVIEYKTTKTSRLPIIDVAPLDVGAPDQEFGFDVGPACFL
UniProt P02465: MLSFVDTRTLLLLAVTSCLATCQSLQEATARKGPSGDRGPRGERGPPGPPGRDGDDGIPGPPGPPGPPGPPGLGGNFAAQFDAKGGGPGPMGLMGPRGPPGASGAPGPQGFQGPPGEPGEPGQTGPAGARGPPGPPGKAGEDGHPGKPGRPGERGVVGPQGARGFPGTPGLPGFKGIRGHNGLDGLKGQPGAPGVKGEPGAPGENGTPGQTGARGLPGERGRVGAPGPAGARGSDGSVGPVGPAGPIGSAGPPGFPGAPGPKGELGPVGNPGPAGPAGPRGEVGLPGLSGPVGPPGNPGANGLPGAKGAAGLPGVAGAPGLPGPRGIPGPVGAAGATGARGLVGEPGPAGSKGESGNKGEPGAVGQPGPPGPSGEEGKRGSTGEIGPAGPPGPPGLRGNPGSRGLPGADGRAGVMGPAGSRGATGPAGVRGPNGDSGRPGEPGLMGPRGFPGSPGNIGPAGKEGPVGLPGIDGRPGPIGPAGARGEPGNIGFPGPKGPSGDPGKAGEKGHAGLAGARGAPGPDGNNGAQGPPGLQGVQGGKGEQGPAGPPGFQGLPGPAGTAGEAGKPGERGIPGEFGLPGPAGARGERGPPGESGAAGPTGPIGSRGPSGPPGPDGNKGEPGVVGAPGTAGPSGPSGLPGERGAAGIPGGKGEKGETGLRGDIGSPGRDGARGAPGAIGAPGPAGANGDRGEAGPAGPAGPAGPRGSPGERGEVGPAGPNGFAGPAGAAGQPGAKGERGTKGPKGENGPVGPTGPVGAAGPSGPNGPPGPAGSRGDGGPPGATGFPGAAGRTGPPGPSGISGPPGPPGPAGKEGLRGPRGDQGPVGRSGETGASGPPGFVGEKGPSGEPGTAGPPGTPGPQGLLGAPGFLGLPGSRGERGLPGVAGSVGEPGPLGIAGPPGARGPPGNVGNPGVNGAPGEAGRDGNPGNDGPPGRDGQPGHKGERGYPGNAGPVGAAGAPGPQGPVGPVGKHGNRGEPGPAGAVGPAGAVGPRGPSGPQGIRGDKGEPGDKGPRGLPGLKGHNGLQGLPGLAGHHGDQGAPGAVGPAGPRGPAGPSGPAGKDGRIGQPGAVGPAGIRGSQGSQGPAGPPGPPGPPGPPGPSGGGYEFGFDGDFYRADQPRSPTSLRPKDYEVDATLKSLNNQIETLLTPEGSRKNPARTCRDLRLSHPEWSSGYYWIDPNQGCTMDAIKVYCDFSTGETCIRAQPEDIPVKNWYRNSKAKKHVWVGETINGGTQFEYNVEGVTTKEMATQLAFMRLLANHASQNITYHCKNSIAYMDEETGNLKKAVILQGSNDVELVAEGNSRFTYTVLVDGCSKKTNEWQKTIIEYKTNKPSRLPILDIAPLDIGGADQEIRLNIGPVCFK

Results are given in words; binding and its absence hold for the method and conditions named. Some entries that bind do so weakly or less than the wild type.

In experiment [1] the target is T1, collagen scaffold (bovine collagen type I) (bovine) (UniProt P02453+P02465). Description: microdilution assay, release kinetics from hβD2-coated collagen scaffolds. (Broth dilution looks for growth in wells or tubes with falling amounts of substance.)
Experiment [2] concerns the target T1, collagen scaffold (bovine collagen type I) (bovine). Put plainly: agar diffusion assay, release from hβD2-coated collagen scaffold. In general terms: A growth-free zone around the sample is the usual read-out of agar diffusion tests.

For the molecule GIGDPVTCLKSGAICHPVFCPRRYKQIGTCGLPGTKCCKKP [human β-defensin-2], the binding entry in experiment [1] and in experiment [2] was “binds” throughout.
